Consider 107 sequences from PubChem BioAssay AID1508600 (Functional Genomics Laboratory (NCATS/FGL), 2020).

In all, about 53,000 sequences went through this assay and about 3,700 (7%) were called active.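 How the source made its calls: active means gene knockdowns whose robust z-score for IL-1 alpha signal is at least 2 or at most -2, so actives lie on both sides; inactive means the rest.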 The list shows a part of the results.

This experiment can be described thus: Components of the Cytosolic LPS Sensing Pathway: Gene Identification via Genome-wide siRNA Screen.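 Further: robust z of the log signal after scaling to non-targeting control siRNA wells of the plate.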 The following applies: RAW264.7 macrophages, IL-1a HTRF, actives lie on both sides, screened at 100 nM (by protocol), cells primed 5 h with Pam3CSK4 first. An outline of the steps: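 Knockdown: 100 nM siRNA, 48h, RAW264.7. Stimulation: Pam3CSK4 5 h, then LipidA via TransIT-TKO 24 h. Output: supernatant IL-1a HTRF, negative-control-normalized, log robust z-score; viability by CellTiter-Glo.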
(Time-resolved FRET reads energy transfer from a long-lived donor to a nearby acceptor.)
GGAAGAUGAUUUUGACAAUTT against Pcdh18: the z-score is inactive: -0.637.
Consider “GCUGGAUCUACCUAUUCAATT against 4921509C19Rik”, for which the z-score was inactive: 0.0442.
On to GCCUGUGUGUUGCUGUAAGTT against Krtap5-1, for which the z-score was inactive: 0.181.
To GCUCUCAAUUGAGGAUAAATT against Mthfd1 belongs inactive: -0.0879.
GGAGAUCAUGAAGAUCACATT against Mapk12: the z-score is inactive: -0.827.
To GCUGAGGUUGAACUUUAUUTT against Naa25 belongs inactive: 1.77; to GGAAUAGGGAGGUAACCAGTT against Olfr1394, inactive: 0.0525.
On to GGCCAACUGUACAAACUCCTT against Tmem120a, for which the z-score was inactive: -1.16.
Turning to “GGACUCAAGCAGAUGGUAUTT against 1700018B08Rik”, the z-score is inactive: -0.56.
The result for GGAGAAAGCUCGAAAAUGGTT against Prpf8 reads inactive: -1.61; that for GGUUUCCUGAAGUUUUCAATT against Gnaz, active: 3.08; that for GGACUGGGAAGAUGAUGAATT against Eola1, inactive: -1.51.
The result for CCUGAGAUGUUUCAACUGCTT against Plekha3 reads inactive: -0.853; that for GCUAAGAAACGGAAUUUGGTT against Adam7, inactive: 0.446; that for GCUCACCAAUGAAAUUAAUTT against Xpo7, inactive: -0.981.
To GAUCAAGGACCGGUACCUGTT against Lmo1 belongs inactive: 1.34.
On to GGCAUUGAAGGAAGUGAUCTT against Psmg3, for which the z-score is active: -2.9.
For the sequence UGUUUGGGCCCAAAGGCUUTT against Crip1, the z-score is inactive: -1.15.
The result for GGGAAGAAAUCAACGAUAATT against Gpa33 reads inactive: -0.0673.
On to GGGAUGUGGAACGUAUGGUTT against Tmem53, for which the z-score is inactive: 1.04.
With GGGUGUAGUCCUGAAAGUATT against Arpc5l, the z-score is active: 2.45.
For GGAACAGGUAAAGAUCCCATT against Repin1, the z-score was inactive: 0.609.
The result for GGUGAUGAAGUGCGUCCUGTT against Chga reads inactive: -0.396; that for GGACUUAUCAAGCUGGUUUTT against Rps25, inactive: -1.48; that for GGCUUCAAGGGAAAAGCUGTT against Snx32, inactive: -0.95.
With GGAAAAUCAACUUCACAAATT against Shox2, the z-score was inactive: -0.796.
To GGAGAAAUCCCUUCACGGUTT against Mas1 belongs inactive: 0.449.
As for GGUCAUUUUGCAUGAUGUCTT against Trpv3, the z-score is inactive: -0.779.
To GGAGAAACAGCCUAAGAAGTT against Pacsin1 belongs inactive: -0.424; to GGCAGACUUCUACAAGGAATT against Arhgef4, inactive: 0.518.
As to GGUUGACACAGAUGAAGAGTT against Rdh9, the z-score was inactive: -0.171.
To GCAGCUUCGAAACCUACCATT against Tbc1d10b belongs inactive: 1.33; to GGCUGAUUUGCAUAUCGGGTT against Ethe1, inactive: -0.799; to GGAACUCAAACUUUUCGUATT against Map1b, inactive: 0.509.
To GUCUCUCUUUUAACAUGCUTT against Ceacam13 belongs inactive: -0.176; to GCAUGAAUUUUGCACGGACTT against Rad18, inactive: 1.04.
The result for GGGCUCUUUUUCUAGGAAATT against Fam155a reads inactive: -0.247; that for GGCUGACUACAAUUUAAUCTT against Slitrk4, inactive: 0.472; that for GGACACCUAUCUUGUCCGGTT against Cyb5rl, inactive: 0.935.
On to GGAAUUUUGCCAGCAAAUGTT against Edaradd, for which the z-score was inactive: 0.624.
Regarding CCCUCUCUACGUGAUUCAATT against Brd2, the z-score is inactive: 0.189.
To GGAUGACUAGACAGGAAAATT against Ptma belongs inactive: 0.397; to CCUGGAGUGAAGUACAAAUTT against Zfp458, inactive: -0.642; to GCGGGAAGCCUUUAUCUCUTT against Aanat, inactive: 0.199.
Turning to GGCUUCGACUGUUGAGAUUTT against Septin2, the z-score was inactive: -0.786.
The result for GCUCAGUCAUGUCUUGUGCTT against Tagap reads inactive: -0.624; that for GGGCUGUUUUUACAAAACATT against Fam155a, inactive: -0.746; that for GGACAAUUUAUUCCAGUUUTT against Dlx1, inactive: -1.44.
To GGUACACUAUGAGGUCUGCTT against Traf2 belongs active: 2.07; to GGCCUGUCUGAGCUUAACATT against Cmtm3, inactive: 0.861; to GGUGAUUCCCGAUUAUGUGTT against Ercc1, inactive: -1.34.
The result for GCGAGAUGCGUUCAUGGACTT against Srcin1 reads inactive: 0.176.
As for CGAACUUGAGAAUCUUAGATT against Ano10, the z-score is inactive: 0.305.
Consider GGACUCAGAAGUGAACAUATT against Spata7, for which the z-score is inactive: -0.916.
The result for GGCUGUCUCAGAGAAGAAATT against Phxr1 reads inactive: -1.33; that for CGGAUGUUCCAUUUGCUGATT against Sprr2g, inactive: -1.15.
To GGACCAGCUGAAGAUGGGATT against Pced1b belongs inactive: -1.1.
To GGAACACAUUGGGUAUGCCTT against Sac3d1 belongs inactive: -0.575; to CCUUAAGCUAUCAAAUAAGTT against Zfp131, inactive: 1.94; to CCUGAUGUAGAAGCAUACUTT against Tmem9b, inactive: 1.25.
On to CGAUUGGAAUGACCGAGAGTT against Srrt, for which the z-score is inactive: -1.36.
The result for GGCAGGAACUACCUCUUCATT against Sema5b reads inactive: -0.531.
The result for GGACUUAAGUAAGAUGAAGTT against Med15 reads inactive: -1.05.
The result for GGGCAUGGAUUUUAUCCACTT against Ccdc93 reads inactive: 1.93; that for GGGAUCAGAACAAGUAUAATT against Klc1, inactive: 0.257; that for GGUGAAUAUUUCAAUGGCCTT against Klhdc4, inactive: 1.1.
Consider CGGAUGUUCGUGUUAAAAATT against Plek, for which the z-score is inactive: 0.92.
The result for CCCUGAUCAUGUUUUGUCCTT against Mrps24 reads inactive: -0.321; that for GGAAAAAUAGGGUGUUUUGTT against Tdg, inactive: 1.96.
Regarding GCUAUGUCAUCGAGGUCCUTT against Smco1, the z-score is inactive: 0.846.
The result for GCAUCCUGAUCACUUAACATT against Cep170 reads inactive: -0.732.
As for CGUGAGCAGUCAAACCCAGTT against Il27ra, the z-score was inactive: -0.0611.
The result for CCCACAUAAAUAAGUUGGUTT against Olfr996 reads inactive: -1.02.
To GGCGAGUUCUACAGUUACUTT against Cherp belongs inactive: 0.195.
The result for “CGAAUCACUGCUGUUCCAUTT against 5830411N06Rik” reads inactive: 0.625; that for GGUCUCCUGAUGGAGAAGATT against Muc5b, inactive: -0.261.
In the case of GGAAGAUGACCUCAUCCACTT against Crlf2, the z-score is inactive: 0.44.
Regarding GAGUUACUGGAAUUAAAGGTT against Nrg4, the z-score was inactive: 1.93.
With GCUAACUAACGAGAUGAUUTT against T, the z-score is inactive: -1.21.
On to GGAAAGAUGAGAUCCUAGGTT against Fermt3, for which the z-score was inactive: 1.15.
Turning to GCAGAUCCAAGAACAUAAGTT against Acrbp, the z-score was inactive: -0.239.
To GGACUUGGUGCACUGAAGUTT against Lrig3 belongs inactive: 0.987; to GGCUAUUUUUCAGGUUCCUTT against Olfr747, inactive: 1.24.
The result for CUAAAUGCCUCCUACCUUUTT against Krtap4-16 reads inactive: 1.89; that for CCAAUAAGGUCGUUUCUAUTT against Olfr589, inactive: -1.58; that for GGUGGGAUCGAGGAACAAATT against Ext2, inactive: -1.33.
To GGGUUGGAUAAGGAGAAAATT against Polk belongs inactive: -0.632.
Regarding GCAGUUGAGACAAUAUGUCTT against Trim31, the z-score was inactive: -1.8.
Regarding GGAAGAAAGAUCUAUGAACTT against Dph5, the z-score was inactive: -0.648.
As to GGUGUAUUCAGAGAAGAAGTT against Tmem184a, the z-score was inactive: 0.598.
To GCAGGUCAAUGGACUUAUGTT against Tal1 belongs inactive: 0.893.
CCAACUCUGUUACAUUAUGTT against Cenpi: the z-score is inactive: 1.06.
The result for GCUAAGAACGGAUUUCAAGTT against Cnih3 reads inactive: 0.491.
For GGUCCACAGAUUCUUCUAATT against Zfa-ps, the z-score was inactive: -0.761.
The result for GCAUAUUAUACCAAGGCCUTT against Tex11 reads inactive: -0.933.
The result for GGUCUCUCUGGAAAUAUAATT against Gria2 reads inactive: -0.947; that for CCUAACAUAGUAUAGCCUUTT against Zfp868, inactive: -0.0695.
Turning to GGAGCUCAUAUACACCUGCTT against Tdp1, the z-score is inactive: 0.524.
To CGGCUUGCUACUUUGGAACTT against Gda belongs active: 2.55.
Consider CACGGUACAGUACGAUUGATT against Rcan2, for which the z-score was inactive: 0.143.
To CCAUUCAUACCAUACCUGUTT against Tmem50a belongs inactive: -0.521; to GGUGAUCAAACUUUACUCATT against Gfra2, inactive: -1.03; to GGACCAUAUUCCAGACCAGTT against Endov, inactive: 0.247.
In the case of GGAUGACACCAAGUUCAAATT against Kcnb1, the z-score was inactive: 0.765.
Regarding GGAAGAAUUAAACGAUUACTT against Crnkl1, the z-score was inactive: -1.87.
GCCGCUCUACAUAGAAGUUTT against Uxs1: the z-score is inactive: 1.89.
As for GGUCUUUGAGUUAAACCAUTT against Cdc7, the z-score is inactive: -0.0476.
